# Data reported in US12187696B2, “Urea motif containing compounds and derivatives thereof as antibacterial drugs” (Technische Universität München, priority 2016, dated 2025).
# At least one structure is not confirmed: it was looked up by name or label, or the drawing left a doubt.
# Experiments:
# [1] = test system: S. aureus; conditions: against S. aureus, M131 in combination with imipenem; cited from earlier work
# [2] = test system: S. aureus NCTC 8325; assay type: cell-based; conditions: S. aureus NCTC 8325, subinhibitory levels, 27 days
Compound,MIC [1] [µM],resistance development on serial passaging [2]
C[C@@H](O)[C@H]1C(=O)N2C(C(=O)O)=C(SCCN=CN)C[C@H]12 [imipenem],13.4,
"CC1COc2c(N3CCN(C)CC3)c(F)cc3c(=O)c(C(=O)O)cn1c23 (centres unmarked) [ofloxacin, Ofloxacin, reference compound]",,rapid resistance development
